Assay results reported in the supplement of paper PMC5355238.
Structures can show the parent of a compound that is named as a salt. This is one part of the list. Single values are uncertain, as repeats are few or missing.

tested on: Reh; assay: S-phase gammaH2AX median, Z-score vs plate median (drug alone); higher = more S-phase DNA damage; conditions: MK1775 concentration 0 nM; 10 µM; 4 h

SMILES | S-phase gammaH2AX median (Z-score)
CCNC(=O)c1noc(-c2cc(C(C)C)c(O)cc2O)c1-c1ccc(CN2CCOCC2)cc1 | -0.0816
COc1cc(/C=C(\C#N)C(=O)c2ccc(O)c(O)c2)cc(I)c1O [I-OMe-Tyrphostin AG 538] | -0.447
CC(C[N+](C)(C)C)OC(N)=O (stereo not drawn) [Bethanechol chloride] | 0.0291
CC(C)Oc1cc(Nc2nc(N[C@@H](C)c3ccc(F)cn3)ncc2Cl)n[nH]1 | -0.0932
N[C@@H](Cc1c[nH]cn1)C(=O)O [L-Histidine hydrochloride] | 0.0126
Cc1cn([C@H]2C[C@H](N=[N+]=[N-])[C@@H](CO)O2)c(=O)[nH]c1=O [3'-Azido-3'-deoxythymidine] | 0.551
COc1ccc([C@@H]2Sc3ccccc3N(CCN(C)C)C(=O)[C@@H]2OC(C)=O)cc1 [Diltiazem hydrochloride] | 0.0283
CC(=N)NCc1cccc(CN)c1 [1400W dihydrochloride] | 0.0267
O=C(CCCN1CCC(O)(c2ccc(Cl)cc2)CC1)c1ccc(F)cc1 [Haloperidol] | 0.0661
O=c1[nH]c2cc(Cl)ccc2c(O)c1-c1cccc(Oc2ccccc2)c1 | -0.0567
C=CCN1CCc2c(cc(O)c(O)c2Cl)C(c2ccccc2)C1 (stereo not drawn) [(?)-Chloro-APB hydrobromide] | -0.0252
N=C(N)SCCc1ccc(CCSC(=N)N)cc1 [1,4-PBIT dihydrobromide] | 0.317
CN1CCC(CNc2ccc3ncc(-c4cccc(OC(F)(F)F)c4)n3n2)CC1 [SGI-1776 free base] | -0.0893
CC(N)(Cc1ccc(O)cc1)C(=O)O (racemic) [DL-alpha-Methyl-p-tyrosine] | 0.00388
COc1c(C)c2c(c(O)c1C/C=C(\C)CCC(=O)OCCN1CCOCC1)C(=O)OC2 [Mycophenolate mofetil (CellCept)] | 0.0143
CN1C(C(=O)Nc2ccccn2)=C(O)c2ccccc2S1(=O)=O [Piroxicam] | 0.0875
COCCOC(=O)C1=C(C)NC(C)=C(C(=O)OC(C)C)C1c1cccc([N+](=O)[O-])c1 (stereo not drawn) [Nimodipine] | 0.121
NCCS [Cysteamine hydrochloride] | 0.0922
COC(=O)[C@@H](N)Cc1ccc(O)c(O)c1 [L-3,4-Dihydroxyphenylalanine methyl ester hydrochloride] | -0.0945
COc1ccc2c(c1)c(CC(=O)O)c(C)n2Cc1ccc(Cl)cc1 [1-(4-Chlorobenzyl)-5-methoxy-2-methylindole-3-acetic acid] | -0.0777
COc1ccc(COc2cc3oc(=O)c4cc(C(C)O)ccc4c3cc2OC)cc1 (stereo not drawn) [Palomid 529] | -0.0244
O=C(O)c1ccccc1Nc1cccc(OCc2ccc3ccccc3n2)c1 | 0.0868
COc1cc(C(O)C(=O)O)ccc1O (stereo not drawn) [(?)-Vanillylmandelic acid] | 0.132
CC(C)(C)NCC(O)c1ccc(O)c(CO)c1 (stereo not drawn) [Albuterol hemisulfate] | -0.133
CC(C)(C)NCC(O)c1ccc(O)c(CO)c1 (stereo not drawn) [Salbutamol] | -0.0734
CCCCCCCC/C=C\CCCCCCCC(=O)O [Oleic Acid] | 0.102

SMILES | S-phase gammaH2AX median (Z-score)
Cn1c(=O)c2c(ncn2C)n(C)c1=O [Caffeine] | -0.0175
CC[C@@H]1C(=O)N(C)c2cnc(Nc3ccc(C(=O)NC4CCN(C)CC4)cc3OC)nc2N1C1CCCC1 | -0.0777
Cc1c(OCC(F)(F)F)ccnc1C[S+]([O-])c1nc2ccccc2[nH]1 (stereo not drawn) [Lansoprazole] | 0.00946
[N-]=[N+]=Nc1ccc(C(=O)CSC[C@H](NC(=O)CC[C@H](N)C(=O)O)C(=O)NCC(=O)O)cc1 [S-(p-Azidophenacyl)glutathione] | 0.183
C#CCN(C)CC1=Cc2ccccc2Oc2ccccc21 | 0.128
CC[C@H](Nc1ncnc2[nH]cnc12)c1nc2cccc(F)c2c(=O)n1-c1ccccc1 | -0.0615
COc1ccccc1CNCCCCCCNCCCCCCCCNCCCCCCNCc1ccccc1OC [Methoctramine tetrahydrochloride] | 0.0781
O=C(NC1CCNCC1)c1n[nH]cc1NC(=O)c1c(Cl)cccc1Cl | -0.0592
CN(C)CCCC1(c2ccc(F)cc2)OCc2cc(C#N)ccc21 (stereo not drawn) [Citalopram hydrobromide] | 0.0874
Nn1nnc2ccccc21 [1-Aminobenzotriazole] | -0.0447
CCCC(CCC)C(=O)O [Valproic acid sodium salt (Sodium valproate)] | -0.0491
CN(C)CCC(c1ccc(Cl)cc1)c1ccccn1 (stereo not drawn) [(?)-Chlorpheniramine maleate] | 0.00971
C[C@H](O)C(=O)C1=Nc2c(nc(N)[nH]c2=O)NC1 [Sepiapterin] | 0.427
COc1ccccc1N1CCN(CCN2C(=O)CC3(CCCC3)CC2=O)CC1 [BMY 7378 dihydrochloride] | -0.00194
CC(C)(C)c1cc(/C=C(\C#N)C(N)=S)cc(C(C)(C)C)c1O [Tyrphostin AG 879] | 0.374
Cc1nc2c(OCc3ccccc3)cccn2c1CC#N | 0.0346
CCOC(=O)C1=C(C)NC(C)=C(C(=O)OC)C1c1cccc([N+](=O)[O-])c1 (stereo not drawn) [Nitrendipine] | 0.00946
CN(C)c1nc(N)c(C(=O)NC(=N)N)nc1Cl [5-(N,N-Dimethyl)amiloride hydrochloride] | 0.92
O=C(c1ccc(OCCN2CCCCC2)cc1)c1c(-c2ccc(O)cc2)sc2cc(O)ccc12 [Evista (Raloxifene Hydrochloride)] | -0.13
O=C(c1ccc(OCCN2CCCCC2)cc1)c1c(-c2ccc(O)cc2)sc2cc(O)ccc12 [Raloxifene hydrochloride] | -0.173
CC(CN1c2ccccc2Sc2ccccc21)N(C)C (stereo not drawn) [Promethazine hydrochloride] | -0.0378
CNC(=O)c1ccccc1Sc1ccc2c(/C=C/c3ccccn3)n[nH]c2c1 [Axitinib] | 0.0313
O=C(Nc1cccc(Cl)c1)Nc1ncc(CCNc2ncnc3ccsc23)s1 | -0.135
CCCOC(=O)c1c(-c2ccccc2)nc(CC)c(C(=O)SCC)c1CCC | 0
COc1ccc(CCCOC(Cn2ccnc2)c2ccc(OC)cc2)cc1 (stereo not drawn) | 0.04
O=C(NCC1CCCCN1)c1cc(OCC(F)(F)F)ccc1OCC(F)(F)F (stereo not drawn) [Flecainide acetate] | -0.189

Laid out differently: results already given
O=C(NC1CCNCC1)c1n[nH]cc1NC(=O)c1c(Cl)cccc1Cl
  S-phase gammaH2AX median (Z-score): -0.0592
CN(C)CCC(c1ccc(Cl)cc1)c1ccccn1 (stereo not drawn) [(?)-Chlorpheniramine maleate]
  S-phase gammaH2AX median (Z-score): 0.00971
CC(C)(C)c1cc(/C=C(\C#N)C(N)=S)cc(C(C)(C)C)c1O [Tyrphostin AG 879]
  S-phase gammaH2AX median (Z-score): 0.374

Quoted at random: 2 records from the list, in no set order.
SMILES | S-phase gammaH2AX median (Z-score)
CCOC(=O)C1=C(C)NC(C)=C(C(=O)OC)C1c1cccc([N+](=O)[O-])c1 (stereo not drawn) [Nitrendipine] | 0.00946
COc1ccc2c(c1)c(CC(=O)O)c(C)n2Cc1ccc(Cl)cc1 [1-(4-Chlorobenzyl)-5-methoxy-2-methylindole-3-acetic acid] | -0.0777

Following part.

SMILES | S-phase gammaH2AX median (Z-score)
COc1cc(N2CCC(N3CCN(C)CC3)CC2)ccc1Nc1ncc(Cl)c(Nc2ccccc2S(=O)(=O)C(C)C)n1 | -0.192
N[C@@H](CCC(=O)N[C@@H](CSN=O)C(=O)NCC(=O)O)C(=O)O [S-Nitrosoglutathione] | 0.187
CCCCC#Cc1nc(N)c2ncn([C@@H]3O[C@H](C(=O)NCC)[C@@H](O)[C@H]3O)c2n1 | -0.23
CC(CCc1ccc(O)cc1)NCCc1ccc(O)c(O)c1 (stereo not drawn) [Dobutamine hydrochloride] | -0.211
O=c1cc(O)cc(/C=C/c2ccc(O)c(O)c2)o1 [Hispidin] | -0.101
COc1cc2ncnc(Nc3ccc(Oc4ccccc4)cc3)c2cc1OC | -0.0452
O=C1C(Cl)=C(NCCN2CCOCC2)C(=O)c2ncccc21 | 2.3
O=c1[nH]c(=O)n([C@H]2C[C@H](O)[C@@H](CO)O2)cc1/C=C/Br [(E)-5-(2-Bromovinyl)-2'-deoxyuridine] | 0.0563
Cn1c(=O)c(F)c(Nc2ccc(I)cc2F)c2c(=O)n(C[C@@H](O)CO)cnc21 | 0.242
CC(C)N(CCC(=O)c1ccc2ccccc2c1)Cc1ccccc1 | 0.097
CNC1(C)C2CCC(C2)C1(C)C (stereo not drawn) [Mecamylamine hydrochloride] | 0.121
c1ccc2c(-c3cnn4cc(-c5ccc(N6CCNCC6)cc5)cnc34)ccnc2c1 | -0.271
CC(C)(Oc1ccc(C2CC2(Cl)Cl)cc1)C(=O)O (stereo not drawn) [Ciprofibrate] | 0.0583
Nc1nc(Nc2ccc(S(N)(=O)=O)cc2)nn1C(=O)c1c(F)cccc1F | -0.07
CC(C)c1onc(-c2c(Cl)cccc2Cl)c1COc1ccc(/C=C/c2cccc(C(=O)O)c2)c(Cl)c1 | -0.0468
O=C(O)CCC/C=C\C[C@@H]1[C@@H](/C=C/[C@H](O)C2Cc3ccccc3C2)[C@@H](F)C[C@@H]1O | -0.0485
Cc1[nH]c(/C=C2\C(=O)Nc3ccc(S(=O)(=O)Cc4c(Cl)cccc4Cl)cc32)c(C)c1C(=O)N1CCC[C@@H]1CN1CCCC1 | -0.00812
COc1cc2c(cc1OC)CN(CCc1ccc(NC(=O)c3cccc4c(=O)c5cccc(OC)c5[nH]c34)cc1)CC2 [Elacridar] | -0.0746
CCn1c(-c2nonc2N)nc2cnc(Oc3cccc(NC(=O)c4ccc(OCCN5CCOCC5)cc4)c3)cc21 | -0.0182
Cn1cnc2c(NC3CCCC3)ncnc21 [N6-Cyclopentyl-9-methyladenine] | 0.0781
CC[C@]1(O)C[C@@H]2CN(CCc3c([nH]c4ccccc34)[C@@](C(=O)OC)(c3cc4c(cc3OC)N(C)[C@H]3[C@@](O)(C(=O)OC)[C@H](OC(C)=O)[C@]5(CC)C=CCN6CC[C@]43[C@@H]65)C2)C1 [Vinblastine sulfate salt] | 0.147
CC[C@]1(O)C[C@@H]2CN(CCc3c([nH]c4ccccc34)[C@@](C(=O)OC)(c3cc4c(cc3OC)N(C)[C@H]3[C@@](O)(C(=O)OC)[C@H](OC(C)=O)[C@]5(CC)C=CCN6CC[C@]43[C@@H]65)C2)C1 [Vinblastine] | -0.0553
Cn1cnc(N)c2ncnc1-2 [3-Methyladenine] | 0.0994
CC(=O)NCCc1ccc(O)c(O)c1 [N-Acetyldopamine monohydrate] | 0.00194
Nc1nccc2c1ncn2[C@@H]1O[C@H](CO)[C@@H](O)[C@H]1O [3-deazaadenosine] | -0.0945
N[C@@H](Cc1ccc(F)cc1)C(=O)O [p-Fluoro-L-phenylalanine] | -0.0819
